The results in this text go back to PMC10940091.

In the assay the target is T1, Zinc finger MYND-type containing 8 (ZMYND8), endogenous (human (endogenous in MDA-MB-231 and MCF-7)) (UniProt Q9ULU4).
T1 sequence: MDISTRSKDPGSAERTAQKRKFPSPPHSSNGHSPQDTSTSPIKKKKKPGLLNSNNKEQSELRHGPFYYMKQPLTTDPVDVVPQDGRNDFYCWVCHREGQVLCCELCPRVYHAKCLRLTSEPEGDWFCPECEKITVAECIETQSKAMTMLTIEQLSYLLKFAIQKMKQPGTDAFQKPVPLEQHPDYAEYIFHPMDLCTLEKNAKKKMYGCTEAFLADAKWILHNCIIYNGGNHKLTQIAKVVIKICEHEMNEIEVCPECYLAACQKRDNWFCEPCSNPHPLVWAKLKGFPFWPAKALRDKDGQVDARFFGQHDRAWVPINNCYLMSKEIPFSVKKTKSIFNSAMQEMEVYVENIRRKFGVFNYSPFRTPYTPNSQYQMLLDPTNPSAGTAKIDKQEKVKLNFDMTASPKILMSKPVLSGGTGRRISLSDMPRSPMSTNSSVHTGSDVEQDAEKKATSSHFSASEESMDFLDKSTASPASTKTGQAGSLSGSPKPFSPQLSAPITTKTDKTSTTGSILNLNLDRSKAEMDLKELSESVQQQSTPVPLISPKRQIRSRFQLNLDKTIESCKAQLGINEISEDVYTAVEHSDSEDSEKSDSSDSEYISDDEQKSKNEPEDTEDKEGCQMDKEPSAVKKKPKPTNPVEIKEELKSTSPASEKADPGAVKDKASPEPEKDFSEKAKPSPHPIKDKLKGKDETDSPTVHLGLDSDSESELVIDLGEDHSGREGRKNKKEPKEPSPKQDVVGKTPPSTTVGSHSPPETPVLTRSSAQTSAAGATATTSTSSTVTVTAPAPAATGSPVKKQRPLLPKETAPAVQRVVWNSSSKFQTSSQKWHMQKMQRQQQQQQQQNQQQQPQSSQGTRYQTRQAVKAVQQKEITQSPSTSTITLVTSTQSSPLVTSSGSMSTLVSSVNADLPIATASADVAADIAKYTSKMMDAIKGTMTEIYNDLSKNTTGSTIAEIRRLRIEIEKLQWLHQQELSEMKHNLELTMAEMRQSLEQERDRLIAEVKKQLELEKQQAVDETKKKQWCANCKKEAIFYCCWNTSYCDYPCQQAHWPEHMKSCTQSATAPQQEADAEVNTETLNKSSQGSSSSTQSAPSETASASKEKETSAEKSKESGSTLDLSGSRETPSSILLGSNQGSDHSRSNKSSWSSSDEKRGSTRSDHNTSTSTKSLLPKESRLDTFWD
Nature of the assay: co-IP; endogenous proteins in lysates of MDA-MB-231 and MCF-7 mammospheres; NETN lysis buffer (150 mM NaCl, 1 mM EDTA, 10 mM Tris-HCl pH 8.0, 0.5% Igepal); IP overnight at 4°C with anti-ZMYND8 or anti-NRF2 antibody or control IgG, protein A/G magnetic beads; immunoblot. For orientation: Immunoblotting shows a protein as a band on a membrane.

These are yes or no findings as the source states them, for the method shown. Binding seen in cells or lysates may run through a third protein. Some binding calls cover weakened binding; strength is not graded here.

B1: Nuclear factor erythroid 2-related factor 2 (NRF2), endogenous (protein, UniProt Q16236 1-605)
chain: MMDLELPPPGLPSQQDMDLIDILWRQDIDLGVSREVFDFSQRRKEYELEKQKKLEKERQEQLQKEQEKAFFAQLQLDEETGEFLPIQPAQHIQSETSGSANYSQVAHIPKSDALYFDDCMQLLAQTFPFVDDNEVSSATFQSLVPDIPGHIESPVFIATNQAQSPETSVAQVAPVDLDGMQQDIEQVWEELLSIPELQCLNIENDKLVETTMVPSPEAKLTEVDNYHFYSSIPSMEKEVGNCSPHFLNAFEDSFSSILSTEDPNQLTVNSLNSDATVNTDFGDEFYSAFIAEPSISNSMPSPATLSHSLSELLNGPIDVSDLSLCKAFNQNHPESTAEFNDSDSGISLNTSPSVASPEHSVESSSYGDTLLGLSDSEVEELDSAPGSVKQNGPKTPVHSSGDMVQPLSPSQGQSTHVHDAQCENTPEKELPVSPGHRKTPFTKDKHSSRLEAHLTRDELRAKALHIPFPVEKIINLPVVDFNEMMSKEQFNEAQLALIRDIRRRGKNKVAAQNCRKRKLENIVELEQDLDHLKDEKEKLLKEKGENDKSLHLLKKQLSTLYLEVFSMLRDEDGKPYSPSEYSLQQTRDGNVFLVPKSKKPDVKKN
As for B1, the binding entry was “binds”.
